At least one compound was matched to its structure with a doubt left.
What was measured:
[1] = target: T1, Sir2p (Saccharomyces cerevisiae, UniProt P06700); test: Activity of Sir2p on histone and p53 substrates (deacetylation); assay type: biochemical, Saccharomyes cerevisiae
T1 construct: made in house

Sequences of proteins named here, by UniProt entry; tags and fusion partners are left off. A change or cut given only in a name is not applied to a line headed by its entry.
UniProt P06700: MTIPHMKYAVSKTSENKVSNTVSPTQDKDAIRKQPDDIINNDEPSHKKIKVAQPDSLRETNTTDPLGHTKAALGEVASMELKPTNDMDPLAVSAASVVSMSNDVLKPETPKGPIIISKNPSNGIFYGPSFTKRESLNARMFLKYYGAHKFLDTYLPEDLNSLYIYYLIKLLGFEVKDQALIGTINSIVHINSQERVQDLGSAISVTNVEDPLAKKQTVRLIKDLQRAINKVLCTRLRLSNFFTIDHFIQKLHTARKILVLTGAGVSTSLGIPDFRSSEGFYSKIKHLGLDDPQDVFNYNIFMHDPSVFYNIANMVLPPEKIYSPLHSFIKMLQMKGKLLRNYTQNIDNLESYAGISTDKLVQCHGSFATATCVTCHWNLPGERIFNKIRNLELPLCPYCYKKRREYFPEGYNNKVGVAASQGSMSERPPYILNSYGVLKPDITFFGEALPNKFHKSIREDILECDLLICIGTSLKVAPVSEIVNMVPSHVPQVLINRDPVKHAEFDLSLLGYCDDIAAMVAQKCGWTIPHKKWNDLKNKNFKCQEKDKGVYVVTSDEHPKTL
UniProt P0A2F2: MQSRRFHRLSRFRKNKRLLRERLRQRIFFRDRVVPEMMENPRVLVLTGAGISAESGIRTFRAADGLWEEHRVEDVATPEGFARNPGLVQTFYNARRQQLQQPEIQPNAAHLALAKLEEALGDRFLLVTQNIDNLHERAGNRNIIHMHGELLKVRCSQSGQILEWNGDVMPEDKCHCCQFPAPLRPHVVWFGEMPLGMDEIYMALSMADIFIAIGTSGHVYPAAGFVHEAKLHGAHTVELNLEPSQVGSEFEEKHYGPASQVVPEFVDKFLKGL

[2] = target: T2, Sir2Af2 (Archaeoglobus fulgidus, UniProt O30124); test: Activity of Sir2Af2 on histone and p53 substrates (deacetylation); assay type: biochemical
T2 construct: made in house
T2 sequence (O30124 1-253): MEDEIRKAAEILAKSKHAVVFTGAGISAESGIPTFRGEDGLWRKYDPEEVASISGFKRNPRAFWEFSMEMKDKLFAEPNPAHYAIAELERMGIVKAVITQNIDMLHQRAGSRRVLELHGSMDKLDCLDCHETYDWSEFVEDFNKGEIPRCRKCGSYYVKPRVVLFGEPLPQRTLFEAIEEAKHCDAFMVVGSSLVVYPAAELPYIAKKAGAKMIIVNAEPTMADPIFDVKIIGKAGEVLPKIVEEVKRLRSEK

[3] = target: T3, Sir2Tm (Thermotoga maritima, UniProt Q9WYW0); test: Activity of Sir2Tm on histone and p53 substrates (deacetylation); assay type: biochemical
T3 construct: GST; made in house
T3 sequence (Q9WYW0 1-246): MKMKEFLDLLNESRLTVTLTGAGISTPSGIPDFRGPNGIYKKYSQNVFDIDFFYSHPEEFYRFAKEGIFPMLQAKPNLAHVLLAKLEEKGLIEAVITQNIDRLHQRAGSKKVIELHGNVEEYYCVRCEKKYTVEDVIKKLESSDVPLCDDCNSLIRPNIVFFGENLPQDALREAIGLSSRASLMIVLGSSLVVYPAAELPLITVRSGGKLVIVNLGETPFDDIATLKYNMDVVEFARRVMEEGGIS

[4] = target: T4, cobB (Salmonella typhimurium, UniProt P0A2F2); test: Activity of cobB on histone and p53 substrates (deacetylation); assay type: biochemical
T4 construct: GST; made in house

Measured: NAD^+ products analyzed (AADPR and nicotinamide products observed by HPLC/MS)

NC(=O)c1ccc[n+]([C@@H]2O[C@H](COP(=O)([O-])OP(=O)(O)OC[C@H]3O[C@@H](n4cnc5c(N)ncnc54)[C@H](O)[C@@H]3O)[C@@H](O)[C@H]2O)c1 [NAD^+, nicotinamide adenine dinucleotide]
+: all assays above

— US7741295B2, “Sir2 products and activities” (Albert Einstein College of Medicine of Yeshiva University, priority 2001, dated 2010)
